PubChem BioAssay AID1259254 | NCATS, 2017
Purpose: 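Finding genes that stop cells copying their DNA twice in one cycle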 (primary screen). Cell system: human HCT116 colorectal cancer cells. Knock-down reagent: single siRNA against human genes. Time to read-out: 3 days. Detection: 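Imaged Hoechst DNA stain sorts each cell into a cycle phase by DNA amount; per plate, G2 fraction set to 0% for non-targeting and 100% for GMNN siRNA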. Scale: G2 robust z-score and G2 cells, % of GMNN control: higher = more G2 cells, more excess DNA replication; raw share of cells in G2: higher = larger share of cells with G2 DNA content. Hit rule: 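Active siRNAs have a G2 robust z of 5 or more median absolute deviations over the median, which in these data means about 38% or higher of GMNN control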.
This is one part, drawn at random, of about 59,000 reagents. In the full data, about 1,550 (2.6%) were called active. 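G2 share is only a proxy for re-replication; each gene was hit by three separate siRNAs, and active genes were retested.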 The raw values are shown without normalisation. The numbers tell different reagents against one gene apart. Reagent sequences are not shown. Not stated in the record: the amount of reagent.

no.	gene	reagent	G2 robust z-score	G2 cells, % of GMNN control	raw share of cells in G2 (%)	Outcome
1	LARP4B (GeneID 23185)	1	-0.229	1.36	4.33	inactive
2	LARP4B (GeneID 23185)	2	1.76	15.4	9.3	inactive
3	LARP4B (GeneID 23185)	3	-0.737	-2.22	5.48	inactive
4	GJD2 (GeneID 57369)	1	0.394	5.74	4.82	inactive
5	GJD2 (GeneID 57369)	2	-1.13	-4.97	3.66	inactive
6	GJD2 (GeneID 57369)	3	-0.485	-0.448	3.49	inactive
7	BICRA (GeneID 29998)	1	-0.839	-2.94	2.73	inactive
8	BICRA (GeneID 29998)	2	-0.369	0.369	4.69	inactive
9	BICRA (GeneID 29998)	3	1.23	11.6	6.91	inactive
10	HAGHL (GeneID 84264)	1	3.15	25.1	14.1	inactive
11	HAGHL (GeneID 84264)	2	1.15	11	8.19	inactive
12	HAGHL (GeneID 84264)	3	1.03	10.2	9.69	inactive
13	MAPK8IP2 (GeneID 23542)	1	-1.05	-4.4	2.68	inactive
14	MAPK8IP2 (GeneID 23542)	2	-0.0727	2.46	4.71	inactive
15	MAPK8IP2 (GeneID 23542)	3	5.31	40.3	22.6	active
16	SGK1 (GeneID 6446)	1	2.64	21.5	12.7	inactive
17	SGK1 (GeneID 6446)	2	-1	-4.08	4.03	inactive
18	SGK1 (GeneID 6446)	3	-0.588	-1.17	3.61	inactive
19	KLRA1P (GeneID 10748)	1	-1.67	-8.8	3.01	inactive
20	KLRA1P (GeneID 10748)	2	-0.984	-3.95	2.56	inactive
21	KLRA1P (GeneID 10748)	3	1.54	13.8	11.7	inactive
22	ZNF426 (GeneID 79088)	1	-0.75	-2.31	1.98	inactive
23	ZNF426 (GeneID 79088)	2	2.3	19.2	14.6	inactive
24	ZNF426 (GeneID 79088)	3	0.0353	3.22	4.64	inactive
25	MYH1 (GeneID 4619)	1	-1.07	-4.58	3.59	inactive
26	MYH1 (GeneID 4619)	2	-0.629	-1.46	4.89	inactive
27	MYH1 (GeneID 4619)	3	0.032	3.19	4.25	inactive
28	RAD21L1 (GeneID 642636)	1	-0.0767	2.43	4.56	inactive
29	RAD21L1 (GeneID 642636)	2	0.945	9.62	7.06	inactive
30	RAD21L1 (GeneID 642636)	3	2.16	18.2	9.3	inactive
31	SMIM34 (GeneID 388820)	1	6.83	51	26.5	active
32	SMIM34 (GeneID 388820)	2	0.175	4.2	5.21	inactive
33	SMIM34 (GeneID 388820)	3	-0.474	-0.365	3.25	inactive
34	GLE1 (GeneID 2733)	1	0.795	8.56	9.32	inactive
35	GLE1 (GeneID 2733)	2	0.576	7.02	6.66	inactive
36	GLE1 (GeneID 2733)	3	2.57	21	11.8	inactive
37	SPTA1 (GeneID 6708)	1	2.34	19.4	13.7	inactive
38	SPTA1 (GeneID 6708)	2	-0.99	-4	2.31	inactive
39	SPTA1 (GeneID 6708)	3	1	10	6.89	inactive
40	DNAL1 (GeneID 83544)	1	1.18	11.3	8.96	inactive
41	DNAL1 (GeneID 83544)	2	-1.4	-6.89	2.56	inactive
42	DNAL1 (GeneID 83544)	3	0.205	4.41	5.79	inactive
43	TMEM190 (GeneID 147744)	1	6.68	49.9	18.3	active
44	TMEM190 (GeneID 147744)	2	-0.372	0.351	3.19	inactive
45	TMEM190 (GeneID 147744)	3	0.731	8.11	6.55	inactive
46	PTTG1 (GeneID 9232)	1	1.27	11.9	9.93	inactive
47	PTTG1 (GeneID 9232)	2	0.249	4.72	6.92	inactive
48	PTTG1 (GeneID 9232)	3	5.32	40.4	19.2	active
49	AASDHPPT (GeneID 60496)	1	-0.0827	2.39	5.09	inactive
50	AASDHPPT (GeneID 60496)	2	1.81	15.7	12.1	inactive
51	AASDHPPT (GeneID 60496)	3	0.378	5.63	6.34	inactive
52	FGF21 (GeneID 26291)	1	-0.901	-3.37	2.12	inactive
53	FGF21 (GeneID 26291)	2	2.03	17.2	10.9	inactive
54	FGF21 (GeneID 26291)	3	-0.156	1.87	4.75	inactive
55	FER (GeneID 2241)	1	0.928	9.5	8.74	inactive
56	FER (GeneID 2241)	2	-0.929	-3.57	4.21	inactive
57	FER (GeneID 2241)	3	-0.61	-1.32	3.56	inactive
58	ANGPTL7 (GeneID 10218)	1	-0.126	2.08	6.6	inactive
59	ANGPTL7 (GeneID 10218)	2	-0.808	-2.72	2.96	inactive
60	ANGPTL7 (GeneID 10218)	3	-0.0876	2.35	7.41	inactive
61	CHIC2 (GeneID 26511)	1	-1.01	-4.15	2.85	inactive
62	CHIC2 (GeneID 26511)	2	0.49	6.42	6.72	inactive
63	CHIC2 (GeneID 26511)	3	-0.582	-1.13	2.91	inactive
64	XRCC6 (GeneID 2547)	1	2.29	19.1	12.2	inactive
65	XRCC6 (GeneID 2547)	2	1.39	12.7	10.1	inactive
66	XRCC6 (GeneID 2547)	3	-0.593	-1.2	3.23	inactive
67	PAXX (GeneID 286257)	1	-0.35	0.508	3.24	inactive
68	PAXX (GeneID 286257)	2	-1.2	-5.45	1.61	inactive
69	PAXX (GeneID 286257)	3	0.279	4.93	5.44	inactive
70	FRMD6 (GeneID 122786)	1	-0.796	-2.63	3.04	inactive
71	FRMD6 (GeneID 122786)	2	-0.987	-3.98	2.14	inactive
72	FRMD6 (GeneID 122786)	3	-0.913	-3.45	0.809	inactive
73	MED7 (GeneID 9443)	1	2.78	22.5	15.5	inactive
74	MED7 (GeneID 9443)	2	3.13	25	14.4	inactive
75	MED7 (GeneID 9443)	3	1.7	15	8.85	inactive
76	KLRB1 (GeneID 3820)	1	-1.07	-4.56	3.95	inactive
77	KLRB1 (GeneID 3820)	2	-0.532	-0.778	3.92	inactive
78	KLRB1 (GeneID 3820)	3	-0.12	2.12	5.82	inactive
79	TNNC2 (GeneID 7125)	1	0.187	4.28	6.05	inactive
80	TNNC2 (GeneID 7125)	2	0.772	8.4	8.35	inactive
81	TNNC2 (GeneID 7125)	3	-0.237	1.3	5.22	inactive
82	RASD1 (GeneID 51655)	1	-1.23	-5.72	2.13	inactive
83	RASD1 (GeneID 51655)	2	-1.4	-6.86	1.17	inactive
84	RASD1 (GeneID 51655)	3	1.68	14.8	12.7	inactive
85	MRPL30 (GeneID 51263)	1	-0.898	-3.35	2.58	inactive
86	MRPL30 (GeneID 51263)	2	0.994	9.96	8.32	inactive
87	MRPL30 (GeneID 51263)	3	0.701	7.9	5.74	inactive
